At least one compound was matched to its structure with a doubt left.
System: HBV
Assay: Evaluation of drug candidates against HBV in the liver tissue model
Type: cell-based, hepatitis B virus

Question: `Nc1ccn([C@@H]2CS[C@H](CO)O2)c(=O)n1` [Lamivudine] was tested. Which “Inhibition of HBV replication” value (dosed at various concentrations every 48 hrs (FIG. 17)) did it give?
Answer: The value was “inhibit HBV replication”.

Question: What about the “IC50 against HBV replication” value (dosed at various concentrations every 48 hrs, values only in FIG. 17) of the same compound?
Answer: The value was “comparable to in vivo treatment with Lamivudine”.
